Measurements taken from US12099068B2, “Biomarkers for graft-versus-host disease” (Incyte Corporation, priority 2018, dated 2024).

Legend:
plasma proteins [1] = assay: OLINK proximity extension assay of baseline plasma, CR compared to PD/Death, updated classification, Example 5 (Table 11); type: in vivo, human; details: itacitinib 200 or 300 mg QD plus corticosteroids, response at day 28
plasma proteins [2] = assay: Proteins of Table 11 stably expressed in complete responders between days 1 and 28, Example 5 (Table 12); type: in vivo, human; details: day 1 vs day 28
Method: Due to the limited sample size, steroid-naive (N=10) and steroid-refractory (N=18) patients were combined for further analysis. Broad proteomic analysis of over 1000 proteins was conducted by OLINK Proteomics (Watertown, MA) using a proximity extension assay as described by the manufacturer. Data are presented as normalized protein expression (NPX) in log 2 scale. Statistical differences were evaluated using unpaired and paired t tests, one-way […] (ANOVA), and Pearson Correlation. Significance was conferred when P<0.05.

Molecule | Fold Change, Down-Regulated in CR Compared to PD/Death (plasma proteins [1]) | Fold Change (D1 vs D28), proteins Down-Regulated in CR Compared to PD/Death (plasma proteins [2]) | Fold Change, Up-Regulated in CR Compared to PD/Death (plasma proteins [1]) | Fold Change (D1 vs D28), proteins Up-Regulated in CR Compared to PD/Death (plasma proteins [2])
CA5A (protein, UniProt P35218 39-305, looked up) Carbonic anhydrase 5A, …: CAWQTSNNTLHPLWTVPVSVPGGTRQSPINIQWRDSVYDPQLKPLRVSYEAASCLYIWNTGYLFQVEFDDATEASGISGGPLENHYRLKQFHFHWGAVNEGGSEHTVDGHAYPAELHLVHWNSVKYQNYKEAVVGENGLAVIGVFLKLGAHHQTLQRLVDILPEIKHKDARAAMRPFDPSTLLPTCWDYWTYAGSLTTPPLTESVTWIIQKEPVEVAPSQLSAFRTLLFSALGEEEKMMVNNYRPLQPLMNRKVWASFQATNEGTRS | −7.4693 | −1.1295 |  | 
SULT2A1 (protein, UniProt Q06520 1-285, looked up) Sulfotransferase 2A1: MSDDFLWFEGIAFPTMGFRSETLRKVRDEFVIRDEDVIILTYPKSGTNWLAEILCLMHSKGDAKWIQSVPIWERSPWVESEIGYTALSETESPRLFSSHLPIQLFPKSFFSSKAKVIYLMRNPRDVLVSGYFFWKNMKFIKKPKSWEEYFEWFCQGTVLYGSWFDHIHGWMPMREEKNFLLLSYEELKQDTGRTIEKICQFLGKTLEPEELNLILKNSSFQSMKENKMSNYSLLSVDYVVDKAQLLRKGVSGDWKNHFTVAQAEDFDKLFQEKMADLPRELFPWE | −4.7009 | 1.2251 |  | 
VAMP5 (protein, UniProt O95183 1-116, looked up) Vesicle-associated membrane …: MAGIELERCQQQANEVTEIMRNNFGKVLERGVKLAELQQRSDQLLDMSSTFNKTTQNLAQKKCWENIRYRICVGLVVVGVLLIILIVLLVVFLPQSSDSSSAPRTQDAGIASGPGN | −4.3186 | −1.3344 |  | 
ENPP7 (protein, UniProt Q6UWV6 22-458, looked up) Ectonucleotide …: APVQSQGSQNKLLLVSFDGFRWNYDQDVDTPNLDAMARDGVKARYMTPAFVTMTSPCHFTLVTGKYIENHGVVHNMYYNTTSKVKLPYHATLGIQRWWDNGSVPIWITAQRQGLRAGSFFYPGGNVTYQGVAVTRSRKEGIAHNYKNETEWRANIDTVMAWFTEEDLDLVTLYFGEPDSTGHRYGPESPERREMVRQVDRTVGYLRESIARNHLTDRLNLIITSDHGMTTVDKRAGDLVEFHKFPNFTFRDIEFELLDYGPNGMLLPKEGRLEKVYDALKDAHPKLHVYKKEAFPEAFHYANNPRVTPLLMYSDLGYVIHGRINVQFNNGEHGFDNKDMDMKTIFRAVGPSFRAGLEVEPFESVHVYELMCRLLGIVPEANDGHLATLLPMLHTESALPPDGRPTLLPKGRSALPPSSRPLLVMGLLGTVILLSEVA | −3.804 | 1.4178 |  | 
PRSS2 (protein, UniProt P07478 24-247, looked up) Trypsin-2: IVGGYICEENSVPYQVSLNSGYHFCGGSLISEQWVVSAGHCYKSRIQVRLGEHNIEVLEGNEQFINAAKIIRHPKYNSRTLDNDILLIKLSSPAVINSRVSAISLPTAPPAAGTESLISGWGNTLSSGADYPDELQCLDAPVLSQAECEASYPGKITNNMFCVGFLEGGKDSCQGDSGGPVVSNGELQGIVSWGYGCAQKNRPGVYTKVYNYVDWIKDTIAANS | −3.6787 | −1.1946 |  | 
MFGE8 (protein, UniProt Q08431 24-387, looked up) Lactadherin: LDICSKNPCHNGGLCEEISQEVRGDVFPSYTCTCLKGYAGNHCETKCVEPLGLENGNIANSQIAASSVRVTFLGLQHWVPELARLNRAGMVNAWTPSSNDDNPWIQVNLLRRMWVTGVVTQGASRLASHEYLKAFKVAYSLNGHEFDFIHDVNKKHKEFVGNWNKNAVHVNLFETPVEAQYVRLYPTSCHTACTLRFELLGCELNGCANPLGLKNNSIPDKQITASSSYKTWGLHLFSWNPSYARLDKQGNFNAWVAGSYGNDQWLQVDLGSSKEVTGIITQGARNFGSVQFVASYKVAYSNDSANWTEYQDPRTGSSKIFPGNWDNHSHKKNLFETPILARYVRILPVAWHNRIALRLELLGC | −3.4384 | 1.1591 |  | 
CRISP2 (protein, UniProt P16562 22-243, looked up) Cysteine-rich secretory …: KDPAFTALLTTQLQVQREIVNKHNELRKAVSPPASNMLKMEWSREVTTNAQRWANKCTLQHSDPEDRKTSTRCGENLYMSSDPTSWSSAIQSWYDEILDFVYGVGPKSPNAVVGHYTQLVWYSTYQVGCGIAYCPNQDSLKYYYVCQYCPAGNNMNRKNTPYQQGTPCAGCPDDCDKGLCTNSCQYQDLLSNCDSLKNTAGCEHELLKEKCKATCLCENKIY |  |  | 2.2475 | 1.0244
KRT19 (protein, UniProt P08727 1-400, looked up) Keratin, type I cytoskeletal …: MTSYSYRQSSATSSFGGLGGGSVRFGPGVAFRAPSIHGGSGGRGVSVSSARFVSSSSSGAYGGGYGGVLTASDGLLAGNEKLTMQNLNDRLASYLDKVRALEAANGELEVKIRDWYQKQGPGPSRDYSHYYTTIQDLRDKILGATIENSRIVLQIDNARLAADDFRTKFETEQALRMSVEADINGLRRVLDELTLARTDLEMQIEGLKEELAYLKKNHEEEISTLRGQVGGQVSVEVDSAPGTDLAKILSDMRSQYEVMAEQNRKDAEAWFTSRTEELNREVAGHTEQLQMSRSEVTDLRRTLQGLEIELQSQLSMKAALEDTLAETEARFGAQLAHIQALISGIEAQLGDVRADSERQNQEYQRLMDIKSRLEQEIATYRSLLEGQEDHYNNLSASKVL | −3.2722 | −1.0142 |  | 
CR2 (protein, UniProt P20023 21-1033, looked up) Complement receptor type 2: ISCGSPPPILNGRISYYSTPIAVGTVIRYSCSGTFRLIGEKSLLCITKDKVDGTWDKPAPKCEYFNKYSSCPEPIVPGGYKIRGSTPYRHGDSVTFACKTNFSMNGNKSVWCQANNMWGPTRLPTCVSVFPLECPALPMIHNGHHTSENVGSIAPGLSVTYSCESGYLLVGEKIINCLSSGKWSAVPPTCEEARCKSLGRFPNGKVKEPPILRVGVTANFFCDEGYRLQGPPSSRCVIAGQGVAWTKMPVCEEIFCPSPPPILNGRHIGNSLANVSYGSIVTYTCDPDPEEGVNFILIGESTLRCTVDSQKTGTWSGPAPRCELSTSAVQCPHPQILRGRMVSGQKDRYTYNDTVIFACMFGFTLKGSKQIRCNAQGTWEPSAPVCEKECQAPPNILNGQKEDRHMVRFDPGTSIKYSCNPGYVLVGEESIQCTSEGVWTPPVPQCKVAACEATGRQLLTKPQHQFVRPDVNSSCGEGYKLSGSVYQECQGTIPWFMEIRLCKEITCPPPPVIYNGAHTGSSLEDFPYGTTVTYTCNPGPERGVEFSLIGESTIRCTSNDQERGTWSGPAPLCKLSLLAVQCSHVHIANGYKISGKEAPYFYNDTVTFKCYSGFTLKGSSQIRCKADNTWDPEIPVCEKETCQHVRQSLQELPAGSRVELVNTSCQDGYQLTGHAYQMCQDAENGIWFKKIPLCKVIHCHPPPVIVNGKHTGMMAENFLYGNEVSYECDQGFYLLGEKKLQCRSDSKGHGSWSGPSPQCLRSPPVTRCPNPEVKHGYKLNKTHSAYSHNDIVYVDCNPGFIMNGSRVIRCHTDNTWVPGVPTCIKKAFIGCPPPPKTPNGNHTGGNIARFSPGMSILYSCDQGYLLVGEALLLCTHEGTWSQPAPHCKEVNCSSPADMDGIQKGLEPRKMYQYGAVVTLECEDGYMLEGSPQSQCQSDHQWNPPLAVCRSRSLAPVLCGIAAGLILLTFLIVITLYVISKHRARNYYTDTSQKEAFHLEAREVYSVDPYNPAS |  |  | 2.1595 | −1.1488
ALDH1A1 (protein, UniProt P00352 2-501, looked up) Aldehyde dehydrogenase 1A1: SSSGTPDLPVLLTDLKIQYTKIFINNEWHDSVSGKKFPVFNPATEEELCQVEEGDKEDVDKAVKAARQAFQIGSPWRTMDASERGRLLYKLADLIERDRLLLATMESMNGGKLYSNAYLNDLAGCIKTLRYCAGWADKIQGRTIPIDGNFFTYTRHEPIGVCGQIIPWNFPLVMLIWKIGPALSCGNTVVVKPAEQTPLTALHVASLIKEAGFPPGVVNIVPGYGPTAGAAISSHMDIDKVAFTGSTEVGKLIKEAAGKSNLKRVTLELGGKSPCIVLADADLDNAVEFAHHGVFYHQGQCCIAASRIFVEESIYDEFVRRSVERAKKYILGNPLTPGVTQGPQIDKEQYDKILDLIESGKKEGAKLECGGGPWGNKGYFVQPTVFSNVTDEMRIAKEEIFGPVQQIMKFKSLDDVIKRANNTFYGLSAGVFTKDIDKAITISSALQAGTVWVNCYGVVSAQCPFGGFKMSGNGRELGEYGFHEYTEVKTVTVKISQKNS | −3.168 | −1.0791 |  | 
EDIL3 (protein, UniProt O43854 24-480, looked up) EGF-like repeat and discoidin …: DICDPNPCENGGICLPGLADGSFSCECPDGFTDPNCSSVVEVASDEEEPTSAGPCTPNPCHNGGTCEISEAYRGDTFIGYVCKCPRGFNGIHCQHNINECEVEPCKNGGICTDLVANYSCECPGEFMGRNCQYKCSGPLGIEGGIISNQQITASSTHRALFGLQKWYPYYARLNKKGLINAWTAAENDRWPWIQINLQRKMRVTGVITQGAKRIGSPEYIKSYKIAYSNDGKTWAMYKVKGTNEDMVFRGNIDNNTPYANSFTPPIKAQYVRLYPQVCRRHCTLRMELLGCELSGCSEPLGMKSGHIQDYQITASSIFRTLNMDMFTWEPRKARLDKQGKVNAWTSGHNDQSQWLQVDLLVPTKVTGIITQGAKDFGHVQFVGSYKLAYSNDGEHWTVYQDEKQRKDKVFQGNFDNDTHRKNVIDPPIYARHIRILPWSWYGRITLRSELLGCTEEE | −1.2737 |  |  | 
SPON2 (protein, UniProt Q9BUD6 27-331, looked up) Spondin-2: QPLGGESICSARALAKYSITFTGKWSQTAFPKQYPLFRPPAQWSSLLGAAHSSDYSMWRKNQYVSNGLRDFAERGEAWALMKEIEAAGEALQSVHAVFSAPAVPSGTGQTSAELEVQRRHSLVSFVVRIVPSPDWFVGVDSLDLCDGDRWREQAALDLYPYDAGTDSGFTFSSPNFATIPQDTVTEITSSSPSHPANSFYYPRLKALPPIARVTLVRLRQSPRAFIPPAPVLPSRDNEIVDSASVPETPLDCEVSLWSSWGLCGGHCGRLGTKSRTRYVRVQPANNGSPCPELEEEAECVPDNCV | −1.212 |  |  | 
